Data on 57 compounds can be found in PubChem BioAssay AID1487 (National Center for Advancing Translational Sciences (NCATS), 2009).

Structures are written as SMILES. The list shows a part of the results. Further columns of the screen follow, without active or inactive calls. Most of these compounds were active or inconclusive in the main read-out, so they are no random draw. Words in brackets tell the shape of the fitted curve; partial curves, single points and poor fits give uncertain potencies.

This experiment in a line: qHTS Assay for Modulators of Lamin A Splicing. Conditions: HeLa LMNA splicing GFP/RFP minigene ratio, 48 h. Summed up:
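S3 HeLa stable clones carrying a lamin A-EGFP splicing minigene plus DsRed2 were seeded at 600 cells/well in Opti-MEM with 2% FBS, pin-dosed and incubated 48 h at 37°C. Acumen cytometry (488 nm) gave the GFP/RFP total-intensity ratio.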
On the technique in general: In qHTS, concentration-response curves come from the screen itself.

[1] abbreviates: measured here: RFP viability control channel.
Where [2] appears, read: measured here: GFP splicing reporter channel.

For the compound `O=C(CSc1nnc(NC(=O)C2CC2)s1)Nc1ccc(F)cc1`, the AC50 (usually the midpoint of the concentration-response curve, whichever way the signal moves) under setting [1] is 5.62 µM [rising, partial curve].

As to `c1cc2c(cc1C1CCCCC1)c1c3n2CCN=C3CCC1`, the half-maximal activity concentration (AC50) is 2.82 µM [falling, partial curve, poor fit] under setting [2] and 31.6 µM [rising, single point] under setting [1]. As for `Nc1ccccc1S(N)(=O)=O`, the AC50 under setting [2] is 0.0708 µM [falling, full curve, poor fit]. On to `COc1ccccc1NS(=O)(=O)c1cc(NC(=O)C2CCCC2)ccc1N1CCOCC1`, for which the AC50 under setting [1] is 11.2 µM [rising, single point]. In the case of `O=C(N/N=C\c1cc(Cl)ccc1O)c1ccc(S(=O)(=O)N2CCCCC2)cc1`, the AC50 under setting [1] was 7.94 µM [rising, partial curve].

Regarding `O=C(NCc1cccnc1)NC1(C(F)(F)F)Oc2ccc(Cl)cc2O1` (stereo not drawn), the AC50 under setting [1] is 11.2 µM [rising, partial curve]. `N#CC1=C(SCc2ccccc2)NC(=O)CC1c1cccc(O)c1` (stereo not drawn): the AC50 under setting [1] is 35.5 µM [rising, single point]. With `COc1ccc(-c2cc(C(F)(F)F)n3ncc(C(=O)O)c3n2)cc1OC`, the AC50 under setting [1] is 5.62 µM [rising, single point]. In the case of `Cc1ccc2c(c1C)NC(C(=O)O)C1CC=CC21` (stereo not drawn), the AC50 under setting [2] was 0.0251 µM [falling, full curve]. For the compound `COc1ccc(NC(=O)CN2C(=O)c3ccccc3Sc3ccc(C(=O)N4CCOCC4)cc32)c(OC)c1`, the AC50 under setting [2] was 0.0708 µM [falling, full curve, poor fit].

Consider `O=C(Nc1ccc(Cl)c(Cl)c1)Nc1nnc(CSc2ccccc2)s1`, for which the AC50 under setting [1] was 5.62 µM [rising, single point]. Turning to `O=C(C1CC1)N1CCc2cc(Br)cc(S(=O)(=O)N3CCCCCC3)c21`, the AC50 under setting [1] was 10 µM [rising, partial curve, poor fit]. As for `c1cncc(-c2nc3c(ccc4ccccc43)[nH]2)c1`, the AC50 under setting [2] was 0.112 µM [rising, full curve, poor fit]. Consider `O=C(NC1CCCCC1)C1CCCN1S(=O)(=O)c1cccc2nsnc12` (stereo not drawn), for which the AC50 is 14.1 µM [rising, partial curve] under setting [2] and 17.8 µM [rising, partial curve] under setting [1].

Turning to `O=C(O)C(c1ccccc1)N1CCCC1` (stereo not drawn), the AC50 reads like this: under setting [2], 28.2 µM [falling, single point]; under setting [1], 22.4 µM [falling, single point].

On to `COc1cccc(CNC(=O)COCc2cc(-c3ccc4c(c3)OCO4)on2)c1`, for which the AC50 under setting [1] is 15.8 µM [rising, single point]. Consider `CCC(CC)C(=O)Nc1cccc(C(=O)NCCc2ccccc2)c1`, for which, under setting [1], the AC50 is 0.0158 µM [falling, full curve, poor fit]. As for `CC(=O)CC1OC(=O)C(Br)=C1NCc1ccccc1` (stereo not drawn), the AC50 under setting [2] was 12.6 µM [rising, partial curve] and the AC50 under setting [1] is 35.5 µM [rising, single point]. Regarding `COc1ccc(-n2c(CCc3ccccc3)nnc2SCC(=O)c2ccc(Cl)cc2)cc1`, the concentration at half-maximal activity (AC50) by setting is: under setting [2], 3.55 µM [rising, partial curve]; under setting [1], 2.24 µM [rising, single point]. For `COC(=O)C/C=C/[C@@H](C)[C@@H](/C=N/OC[C@H]1O[C@H](c2ccccc2)C=C[C@@H]1Oc1ccc(OC)cc1)OC`, under setting [1], the concentration at half-maximal activity (AC50) was 11.2 µM [rising, single point]. Regarding `CCn1c(SCC(=O)N2CCN(c3cccc(Cl)c3)CC2)nc2ccccc2c1=O`, the AC50 under setting [2] was 35.5 µM [rising, single point] and the AC50 under setting [1] is 35.5 µM [rising, single point]. For the compound `O=C(CSc1nnc(CNC(=O)c2c(F)cccc2Cl)o1)NCc1ccc2c(c1)OCO2`, the AC50 under setting [2] is 31.6 µM [rising, single point]. Regarding `CC(NC(=O)c1ccc(Br)cc1)c1ccccc1` (stereo not drawn), the AC50 is, setting by setting: under setting [2], 4.47 µM [rising, full curve, poor fit]; under setting [1], 4.47 µM [rising, full curve, poor fit].

As to `COc1ccc(OC)c(C2C3=C(N=c4s/c(=C\c5cccc(O)c5)c(=O)n42)c2ccccc2CC3)c1` (stereo not drawn), the concentration at half-maximal activity (AC50) under setting [1] is 35.5 µM [rising, single point]. On the same count and under the same terms, in the case of `COc1ccc(S(=O)(=O)N2c3ccccc3OCC2C)cc1` (stereo not drawn) it was 35.5 µM [rising, single point]; in that of `CN1c2ccccc2N(C)C1(C)c1ccccc1`, 17.8 µM [rising, partial curve].

For the compound `CN(C)S(=O)(=O)c1ccc2c(c1)N(CC(=O)N1CCN(c3ccccc3F)CC1)CCS2`, the AC50 under setting [1] is 0.141 µM [falling, full curve, poor fit]. As for `CC[C@@]12CCCN3CCc4c(n(c5ccccc45)C(=O)C1)[C@H]32`, the AC50 under setting [2] was 12.6 µM [falling, single point] and the AC50 under setting [1] is 14.1 µM [falling, single point]. As to `CC1(c2ccccc2)CC(C)(C)N(C(=O)c2cc([N+](=O)[O-])cc([N+](=O)[O-])c2)c2ccccc21` (stereo not drawn), the AC50 under setting [2] was 17.8 µM [rising, partial curve]. Take `CCOC(=O)c1oc2ccccc2c1NC(=O)CN1CCOCC1`: the AC50 under setting [1] was 0.00447 µM [falling, full curve, poor fit].

As for `COc1ccc(/C=N/NC(=O)c2ccc(N(C)S(=O)(=O)c3ccccc3)cc2)cc1`, under setting [2], the AC50 was 35.5 µM [falling, single point]. The same measure, in the same setting: in the case of `O=C(NCCc1ccccc1)C1CCN(S(=O)(=O)N2CCCCCC2)CC1` it was 6.31 µM [rising, single point]. For the compound `Cc1ccccc1CNC(=O)c1sc2ncnc(N(C)C3CCCCC3)c2c1C`, under setting [1], the AC50 was 4.47 µM [falling, partial curve, poor fit].

For `COc1ccccc1NC(=O)N(Cc1ccco1)Cc1cc2ccc(C)c(C)c2[nH]c1=O`, the AC50 is, setting by setting: under setting [2], 35.5 µM [rising, single point]; under setting [1], 14.1 µM [rising, single point]. For `CC(C)CC(=O)NC(NC(=S)Nc1cccc2cccnc12)C(Cl)(Cl)Cl` (stereo not drawn), the AC50 by setting is: under setting [2], 12.6 µM [rising, single point]; under setting [1], 28.2 µM [rising, single point]. In the case of `Cn1cnnc1SCC(=O)Nc1nc(-c2ccccc2)cs1`, the AC50 reads like this: under setting [2], 17.8 µM [falling, partial curve, poor fit]; under setting [1], 31.6 µM [falling, partial curve, poor fit]. On to `CN(Cc1cn(C)nc1-c1ccccc1F)Cc1nccn1C`, for which the concentration at half-maximal activity (AC50) under setting [1] is 35.5 µM [rising, single point].

In the case of `Cc1ccc(Nc2nc(N3CCOCC3)nc(N3CCOCC3)n2)cc1`, the AC50 reads like this: under setting [2], 15.8 µM [falling, single point]; under setting [1], 35.5 µM [falling, single point].

Turning to `COc1ccc(N2CCN(CCNC(=O)Nc3ccc(Cl)cc3)CC2)cc1`, under setting [1], the AC50 is 22.4 µM [rising, single point]. For the compound `O=C(NC1CCCC1)c1ccc2c(=O)n(Cc3ccccc3)c(SCc3ccccc3)nc2c1`, the AC50 under setting [1] is 0.02 µM [falling, full curve, poor fit]. Regarding `COc1ccc(N2CCN(CCCNC(=O)c3cc(Nc4ccccc4OC)nc4ccccc34)CC2)cc1`, the AC50 under setting [2] was 0.794 µM [rising, partial curve, poor fit]. Take `O=C1C2C3c4ccccc4C(c4ccccc43)C2C(=O)N1Cc1cccnc1` (stereo not drawn): the AC50 was 15.8 µM [rising, partial curve, poor fit] under setting [2] and 17.8 µM [rising, single point] under setting [1]. Consider `FC(F)(F)c1cc(-c2ccc(Cl)cc2)nc(NCc2cccnc2)n1`, for which the AC50 is 35.5 µM [rising, single point] under setting [2] and 35.5 µM [rising, single point] under setting [1]. For the compound `Cn1c(C(=O)N2CCc3ccccc3C2)cc2oc3ccccc3c21`, the AC50 under setting [2] was 14.1 µM [rising, partial curve, poor fit]. Consider `Cc1ccc(NC(=S)N/N=C/c2ccc([N+](=O)[O-])s2)cc1`, for which, under setting [1], the AC50 was 5.01 µM [falling, partial curve, poor fit].

Consider `CC1CCCCN1S(=O)(=O)c1cc2c3c(c1)CC(=O)N3CCC2` (stereo not drawn), for which the AC50 was 5.01 µM [rising, partial curve, poor fit] under setting [2] and 2.82 µM [rising, single point] under setting [1]. As for `O=C(NCc1ccccc1Cl)C1CCCN(c2nc3ccsc3c(=O)s2)C1` (stereo not drawn), the AC50 under setting [1] was 0.0355 µM [falling, full curve, poor fit]. Take `CN(C(=O)CSc1nc2ccccc2n1CC(=O)N(C)c1ccc(F)cc1)c1ccccc1`: the half-maximal activity concentration (AC50) under setting [2] is 0.0447 µM [rising, full curve, poor fit].

Turning to `Cc1ccccc1-n1ncc2c(SCC(=O)N3c4ccccc4CC3C)ncnc21` (stereo not drawn), under setting [2], the AC50 is 22.4 µM [falling, partial curve, poor fit].

As to `O=[N+]([O-])c1cc(Cl)cc(/C=N\Nc2ccccn2)c1O`, under setting [1], the concentration at half-maximal activity (AC50) is 3.16 µM [rising, single point]. Consider `Cc1nnc(SCC(=O)Nc2nc3c(s2)CC(C)CC3)s1` (stereo not drawn), for which the AC50 under setting [1] was 11.2 µM [rising, single point]. As to `CCC(/C=C1\Sc2ccc(OC)cc2N1CCO)=C\c1sc2ccc(OC)cc2[n+]1CCO`, the AC50 under setting [1] is 12.6 µM [rising, partial curve]. On to `Cc1ccc(CNC(=O)CN2C(=O)C3(SCC(=O)N3c3cc(C)cc(C)c3)c3ccccc32)cc1` (stereo not drawn), for which the AC50 under setting [2] is 39.8 µM [falling, partial curve, poor fit]. As to `CCN1C(c2ccc(F)cc2)=CS/C1=C(\C#N)c1nnc2n1-c1ccccc1SC2`, the AC50 under setting [1] was 0.708 µM [rising, single point]. The same measure, in the same setting: in the case of `COc1cc(/C=C/C(=O)c2ccc(O)cc2)ccc1OCC#N` it was 2.82 µM [rising, full curve]; in that of `O=C(c1cccc(S(=O)(=O)N2CCCCC2)c1)N1CCc2ccccc21`, 20 µM [rising, single point]. In the case of `CC(=O)N=c1n(C)c2ccccc2n1CCOc1ccccc1`, the AC50 is, setting by setting: under setting [2], 35.5 µM [rising, single point]; under setting [1], 31.6 µM [rising, single point].
